For this assay, the system named is B6C3F1 mice, ip Sarcoma M5076, median survival T/C. Briefly: NCI In Vivo Anticancer Drug Screen. Data for tumor model Sarcoma M5076 (intraperitoneal) in B6C3F1 mice. To be noted: T/C endpoint: median survival time, higher T/C = longer survival. In short, it runs like this: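 The readout is a ratio of survival in drug-treated animals to survival in animals given vehicle alone, taken in mice bearing a transplanted tumour line.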

Setting [1] is: dose: 100.0 mg/kg/injection, schedule: Q04DX004 (ip), vehicle: saline with Tween-80.
[2] abbreviates: dose: 100.0 mg/kg/injection, schedule: Q04DX004 (ip), vehicle: Klucel (hydroxypropylcellulose) (HPC).
[3] abbreviates: dose: 200.0 mg/kg/injection, schedule: Q04DX004 (ip), vehicle: Klucel (hydroxypropylcellulose) (HPC).
Setting [4] is: dose: 400.0 mg/kg/injection, schedule: Q04DX004 (ip), vehicle: Klucel (hydroxypropylcellulose) (HPC).
[5] abbreviates: dose: 800.0 mg/kg/injection, schedule: Q04DX004 (ip), vehicle: Klucel (hydroxypropylcellulose) (HPC).
Where [6] appears, read: dose: 200.0 mg/kg/injection, schedule: Q04DX004 (ip), vehicle: saline with Tween-80.
Setting [7] is: dose: 50.0 mg/kg/injection, schedule: Q04DX004 (ip), vehicle: Klucel (hydroxypropylcellulose) (HPC).
The mark [8] stands for this setting: dose: 400.0 mg/kg/injection, schedule: Q04DX004 (ip), vehicle: saline with Tween-80.
Where [9] appears, read: dose: 100.0 mg/kg/injection, schedule: Q04DX004 (ip), vehicle: saline.

The list is a part of this screen's results and no random one: it gathers tests that were run many times, whatever their T/C, doses with no T/C, and many T/C values between a quarter and a half above the control. Further doses and runs are listed elsewhere. T/C is the treated group as % of the vehicle group. Some entries give survivors of the animals treated and no T/C: the source holds a T/C of zero for them, seemingly a mark for toxic or unscored doses. Some survivor counts are full or nearly so, which does not show that the dose was tolerated: the source hardly ever lists a survival T/C far under the control, and the zero likely stands for such cases as well. Counts of survivors are from the toxicity check (mostly the fifth day) where no day follows; animals may have died later. Schedule codes are those of the source, read here as Q, the interval in days (D) or hours (H), X, the number of doses. Some entries hold several experiments; the results are listed from low to high. For survival time, the PubChem record calls one and a half times the control and up active, and a quarter to a half above the control has no call in these data; cut-offs in other NCI protocols can differ. Some T/C values are followed by the survivors on the day toxicity was checked, most often the fifth; where none is given, no animal had died by that day.

In the case of `N#Cc1c(N)[nH]c2ccc(Sc3ccccc3)cc12`, the T/C reads like this: under setting [1], 126 % of control [9 of 10 alive on day 14]; (dose: 167.0 mg/kg/injection, schedule: Q04DX004 (ip), vehicle: saline with Tween-80) 125 % of control [9 of 10 alive on day 14]. In addition, where the note is “dose: 278.0 mg/kg/injection, schedule: Q04DX004 (ip), vehicle: saline with Tween-80”, the survivor count is 6 of 10 on day 14.

In the case of `O=C1N[C@@H]2C(=C[C@H](O)[C@@H](O)[C@H]2O)c2cc3c(c(O)c21)OCO3`, the T/C runs as follows: (dose: 0.75 mg/kg/injection, schedule: Q01DX009 (ip), vehicle: saline with Tween-80) 125 % of control; (dose: 0.75 mg/kg/injection, schedule: Q04DX004 (ip), vehicle: saline with Tween-80) 144 % of control; (dose: 1.5 mg/kg/injection, schedule: Q04DX004 (ip), vehicle: saline with Tween-80) 145 % of control; (dose: 3.0 mg/kg/injection, schedule: Q01DX009 (ip), vehicle: saline with Tween-80) 127 % of control [6 of 9 alive on day 14]; (dose: 3.0 mg/kg/injection, schedule: Q04DX004 (ip), vehicle: saline with Tween-80) 133 [8 of 10 alive on day 14] and 139 % of control. Moreover, the survivor count by setting is: (dose: 6.0 mg/kg/injection, schedule: Q01DX009 (ip), vehicle: saline with Tween-80) 1 of 10 on day 14; (dose: 12.0 mg/kg/injection, schedule: Q04DX004 (ip), vehicle: saline with Tween-80) 2 of 10 on day 14 and 4 of 10 on day 14.

As to `COc1ccc(CCN2C(=O)C(=O)N(C)C2=O)cc1OC`, the survivor count by setting is: under setting [2], 10 of 10 on day 14; under setting [3], 10 of 10 on day 14.

Turning to `NC(C/[N+]([O-])=N/O)C(=O)O` (stereo unspecified), under “dose: 60.0 mg/kg/injection, schedule: Q04DX005 (ip), vehicle: alkali diluted with saline”, the T/C was 127 % of control. Further, where the note is “dose: 480.0 mg/kg/injection, schedule: Q04DX005 (ip), vehicle: alkali diluted with saline”, the survivor count is recorded as 5 of 8 on day 17.

As to `CC1=C(C(N)=O)C(c2ccccc2)NC(=S)N1` (stereo unspecified), the survivor count under setting [4] is reported as 5 of 10 on day 14 and the survivor count under setting [5] is given as 0 of 10 on day 14.

As for `COC1CC(C)C(OC)c2cc(O)cc(c2O)NC(=O)/C(C)=C/C=C\C(C)C(OC(N)=O)/C(C)=C\C(C)C1OC` (stereo unspecified), the T/C is 139 % of control (dose: 3.0 mg/kg/injection, schedule: Q01DX009 (ip), vehicle: saline + alcohol); 125 [8 of 10 alive on day 14] and 149 % of control (dose: 5.0 mg/kg/injection, schedule: Q01DX009 (ip), vehicle: saline + alcohol); 146 % of control [8 of 10 alive on day 14] (dose: 8.3 mg/kg/injection, schedule: Q01DX009 (ip), vehicle: saline + alcohol). For the setting “dose: 10.0 mg/kg/injection, schedule: Q01DX009 (ip), vehicle: saline + alcohol”, the survivor count is 0 of 10 on day 14.

For `O=C1C=C(N2CC2)C(=O)C(N2CC2)=C1N1CC1`, the survivor count (dose: 25.0 micrograms/kg/injection, schedule: Q04DX004 (ip), vehicle: saline) is 0 of 10 on day 14; the survivor count (dose: 50.0 micrograms/kg/injection, schedule: Q04DX004 (ip), vehicle: saline) was 0 of 10 on day 14; the survivor count (dose: 100.0 micrograms/kg/injection, schedule: Q04DX004 (ip), vehicle: saline) is given as 0 of 10 on day 14; the survivor count (dose: 200.0 micrograms/kg/injection, schedule: Q04DX004 (ip), vehicle: saline) is 0 of 10 on day 14; the survivor count (dose: 400.0 micrograms/kg/injection, schedule: Q04DX004 (ip), vehicle: saline) is recorded as 0 of 10 on day 14.

Turning to `O=C(O)CC1C(=O)OC2C3COC(=O)c4cc(O)c(O)c(O)c4-c4c(cc(O)c(O)c4O)C(=O)OC2C(OC(=O)c2cc(O)c(O)c4c2C1C(O)C(=O)O4)C(OC(=O)c1cc(O)c(O)c(O)c1)O3` (stereo unspecified), the survivor count reads like this: (dose: 200.0 mg/kg/injection, schedule: Q04DX004 (ip), vehicle: suspension in saline) 1 of 10 on day 14; (dose: 400.0 mg/kg/injection, schedule: Q04DX004 (ip), vehicle: suspension in saline) 0 of 10 on day 14.

With `O=c1[nH]c2cc3c(cc2n2cccc12)oc1ccccc13`, the survivor count reads like this: (dose: 25.0 mg/kg/injection, schedule: Q04DX004 (ip), vehicle: saline with Tween-80) 10 of 10 on day 14; under setting [6], 9 of 10 on day 14.

For `COC1OC(COC(C)=O)C(OC(C)=O)C(OC(C)=O)[CH]1[Hg][O]C(C)=O` (stereo unspecified), the survivor count (dose: 25.0 mg/kg/injection, schedule: Q04DX004 (ip), vehicle: Klucel (hydroxypropylcellulose) (HPC)) is 3 of 10 on day 14; the survivor count under setting [7] was 0 of 10 on day 14; the survivor count under setting [2] is given as 0 of 10 on day 14.

On to `COc1ccc2c(c1)n([O-])c1ccccc1[n+]2=O`, for which the survivor count is, setting by setting: under setting [6], 0 of 10 on day 14; under setting [8], 0 of 10 on day 14.

Regarding `NC(=S)c1ncn(C2OC(COC=O)C(OC=O)C2OC=O)c1NC=O` (stereo unspecified), the T/C is, setting by setting: under setting [7], 139 % of control; under setting [2], 139 % of control; under setting [3], 140 % of control [9 of 10 alive on day 14]. In addition, under setting [5], the survivor count is 0 of 10 on day 14.

As to `CC1(C)C(=O)NC(=O)c2ccccc21`, the survivor count is, setting by setting: under setting [7], 3 of 10 on day 14; under setting [2], 0 of 10 on day 14; under setting [3], 0 of 10 on day 14; under setting [4], 0 of 10 on day 14.

With `Nc1ccn([C@@H]2C=C(CO)[C@@H](O)[C@H]2O)c(=O)n1`, the survivor count reads like this: (dose: 1.0 mg/kg/injection, schedule: Q01DX013 (ip), vehicle: saline) 9 of 10 on day 14; (dose: 2.0 mg/kg/injection, schedule: Q01DX013 (ip), vehicle: saline) 0 of 10 on day 14.

Turning to `CCN1CCC(=C(c2ccccc2)c2ccccc2)C1`, the survivor count was 6 of 10 on day 14 (dose: 75.0 mg/kg/injection, schedule: Q04DX004 (ip), vehicle: Klucel (hydroxypropylcellulose) (HPC)); 0 of 10 on day 14 (dose: 150.0 mg/kg/injection, schedule: Q04DX004 (ip), vehicle: Klucel (hydroxypropylcellulose) (HPC)); 0 of 10 on day 14 (dose: 300.0 mg/kg/injection, schedule: Q04DX004 (ip), vehicle: Klucel (hydroxypropylcellulose) (HPC)).

As to `COc1ccc(OC)c(Cc2cnc3nc(N)nc(N)c3c2C)c1`, the T/C (dose: 100.0 mg/kg/injection, schedule: Q04DX004 (ip), vehicle: water) is 137 % of control [8 of 10 alive on day 14]. Moreover, the survivor count reads like this: (dose: 200.0 mg/kg/injection, schedule: Q04DX004 (ip), vehicle: water) 3 of 10 on day 14; (dose: 400.0 mg/kg/injection, schedule: Q04DX004 (ip), vehicle: water) 0 of 10 on day 14.

Regarding `NC12CC3CC(CC(C3)C1)C2`, the survivor count reads like this: under setting [1], 9 of 10 on day 14; under setting [6], 0 of 10 on day 14; under setting [8], 0 of 10 on day 14.

Take `O=C(O)CC(Sc1ccc(Cl)cc1)C(=O)Nc1ccccc1` (stereo unspecified): the survivor count (dose: 250.0 mg/kg/injection, schedule: Q04DX004 (ip), vehicle: saline with Tween-80) was 9 of 10 on day 14.

With `COc1cc2c(cc1OC)-c1c3c(cc4c1[C@@H](C2)N(C)CC4)OCO3`, the survivor count (dose: 200.0 mg/kg/injection, schedule: Q04DX004 (ip), vehicle: distilled water + Tween-80) is 0 of 10 on day 14.

Consider `CCN(Cc1ccc(Cl)c(Cl)c1)c1ccc2nc(N)nc(N)c2c1C`, for which the T/C (dose: 12.5 mg/kg/injection, schedule: Q04DX004 (ip), vehicle: saline) was 126 % of control; the T/C (dose: 50.0 mg/kg/injection, schedule: Q04DX004 (ip), vehicle: saline) is 128 and 131 % of control [7 of 10 alive on day 14]; the T/C under setting [9] is 126 % of control [9 of 10 alive on day 14]. The survivor count by setting is: under setting [9], 2 of 10 on day 14 and 6 of 10 on day 14; (dose: 200.0 mg/kg/injection, schedule: Q04DX004 (ip), vehicle: saline) 0 of 10 on day 14 and 3 of 10 on day 14.

For `Nc1ccc2ccc(N)cc2c1`, the survivor count under setting [8] was 6 of 10 on day 14.

The values are drawn from PubChem BioAssay AID292 (DTP/NCI, 2004).
